These are yes or no findings as the source states them, for the method shown. Binding seen in cells or lysates may run through a third protein. Here binding means that the protein was enriched with, or labelled near, the bait; the list need not be complete.

By UniProt entry, the sequences of proteins in these tests, tags left out.
UniProt P17679: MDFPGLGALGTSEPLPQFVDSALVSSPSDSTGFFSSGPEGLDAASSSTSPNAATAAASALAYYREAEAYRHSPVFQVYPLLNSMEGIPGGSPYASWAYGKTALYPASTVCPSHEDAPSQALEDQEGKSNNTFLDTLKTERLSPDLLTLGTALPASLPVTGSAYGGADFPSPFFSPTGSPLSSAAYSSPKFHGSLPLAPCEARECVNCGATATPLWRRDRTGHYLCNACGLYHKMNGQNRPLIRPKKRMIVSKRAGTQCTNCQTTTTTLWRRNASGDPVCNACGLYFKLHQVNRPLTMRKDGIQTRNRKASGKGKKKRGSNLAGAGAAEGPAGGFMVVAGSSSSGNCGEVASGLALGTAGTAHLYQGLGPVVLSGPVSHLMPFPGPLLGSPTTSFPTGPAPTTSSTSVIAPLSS
UniProt Q9Z2E1: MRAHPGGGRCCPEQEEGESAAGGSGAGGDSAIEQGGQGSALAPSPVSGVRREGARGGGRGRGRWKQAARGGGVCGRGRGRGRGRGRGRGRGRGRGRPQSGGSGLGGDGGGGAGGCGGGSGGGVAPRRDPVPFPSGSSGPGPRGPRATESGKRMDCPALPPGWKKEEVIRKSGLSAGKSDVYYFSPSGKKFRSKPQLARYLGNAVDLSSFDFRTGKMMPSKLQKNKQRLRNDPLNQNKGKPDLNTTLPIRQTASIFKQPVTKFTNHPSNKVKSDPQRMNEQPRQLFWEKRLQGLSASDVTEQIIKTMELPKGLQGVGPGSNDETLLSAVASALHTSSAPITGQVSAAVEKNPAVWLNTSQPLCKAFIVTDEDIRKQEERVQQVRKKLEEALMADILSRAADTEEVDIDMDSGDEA
UniProt Q60974: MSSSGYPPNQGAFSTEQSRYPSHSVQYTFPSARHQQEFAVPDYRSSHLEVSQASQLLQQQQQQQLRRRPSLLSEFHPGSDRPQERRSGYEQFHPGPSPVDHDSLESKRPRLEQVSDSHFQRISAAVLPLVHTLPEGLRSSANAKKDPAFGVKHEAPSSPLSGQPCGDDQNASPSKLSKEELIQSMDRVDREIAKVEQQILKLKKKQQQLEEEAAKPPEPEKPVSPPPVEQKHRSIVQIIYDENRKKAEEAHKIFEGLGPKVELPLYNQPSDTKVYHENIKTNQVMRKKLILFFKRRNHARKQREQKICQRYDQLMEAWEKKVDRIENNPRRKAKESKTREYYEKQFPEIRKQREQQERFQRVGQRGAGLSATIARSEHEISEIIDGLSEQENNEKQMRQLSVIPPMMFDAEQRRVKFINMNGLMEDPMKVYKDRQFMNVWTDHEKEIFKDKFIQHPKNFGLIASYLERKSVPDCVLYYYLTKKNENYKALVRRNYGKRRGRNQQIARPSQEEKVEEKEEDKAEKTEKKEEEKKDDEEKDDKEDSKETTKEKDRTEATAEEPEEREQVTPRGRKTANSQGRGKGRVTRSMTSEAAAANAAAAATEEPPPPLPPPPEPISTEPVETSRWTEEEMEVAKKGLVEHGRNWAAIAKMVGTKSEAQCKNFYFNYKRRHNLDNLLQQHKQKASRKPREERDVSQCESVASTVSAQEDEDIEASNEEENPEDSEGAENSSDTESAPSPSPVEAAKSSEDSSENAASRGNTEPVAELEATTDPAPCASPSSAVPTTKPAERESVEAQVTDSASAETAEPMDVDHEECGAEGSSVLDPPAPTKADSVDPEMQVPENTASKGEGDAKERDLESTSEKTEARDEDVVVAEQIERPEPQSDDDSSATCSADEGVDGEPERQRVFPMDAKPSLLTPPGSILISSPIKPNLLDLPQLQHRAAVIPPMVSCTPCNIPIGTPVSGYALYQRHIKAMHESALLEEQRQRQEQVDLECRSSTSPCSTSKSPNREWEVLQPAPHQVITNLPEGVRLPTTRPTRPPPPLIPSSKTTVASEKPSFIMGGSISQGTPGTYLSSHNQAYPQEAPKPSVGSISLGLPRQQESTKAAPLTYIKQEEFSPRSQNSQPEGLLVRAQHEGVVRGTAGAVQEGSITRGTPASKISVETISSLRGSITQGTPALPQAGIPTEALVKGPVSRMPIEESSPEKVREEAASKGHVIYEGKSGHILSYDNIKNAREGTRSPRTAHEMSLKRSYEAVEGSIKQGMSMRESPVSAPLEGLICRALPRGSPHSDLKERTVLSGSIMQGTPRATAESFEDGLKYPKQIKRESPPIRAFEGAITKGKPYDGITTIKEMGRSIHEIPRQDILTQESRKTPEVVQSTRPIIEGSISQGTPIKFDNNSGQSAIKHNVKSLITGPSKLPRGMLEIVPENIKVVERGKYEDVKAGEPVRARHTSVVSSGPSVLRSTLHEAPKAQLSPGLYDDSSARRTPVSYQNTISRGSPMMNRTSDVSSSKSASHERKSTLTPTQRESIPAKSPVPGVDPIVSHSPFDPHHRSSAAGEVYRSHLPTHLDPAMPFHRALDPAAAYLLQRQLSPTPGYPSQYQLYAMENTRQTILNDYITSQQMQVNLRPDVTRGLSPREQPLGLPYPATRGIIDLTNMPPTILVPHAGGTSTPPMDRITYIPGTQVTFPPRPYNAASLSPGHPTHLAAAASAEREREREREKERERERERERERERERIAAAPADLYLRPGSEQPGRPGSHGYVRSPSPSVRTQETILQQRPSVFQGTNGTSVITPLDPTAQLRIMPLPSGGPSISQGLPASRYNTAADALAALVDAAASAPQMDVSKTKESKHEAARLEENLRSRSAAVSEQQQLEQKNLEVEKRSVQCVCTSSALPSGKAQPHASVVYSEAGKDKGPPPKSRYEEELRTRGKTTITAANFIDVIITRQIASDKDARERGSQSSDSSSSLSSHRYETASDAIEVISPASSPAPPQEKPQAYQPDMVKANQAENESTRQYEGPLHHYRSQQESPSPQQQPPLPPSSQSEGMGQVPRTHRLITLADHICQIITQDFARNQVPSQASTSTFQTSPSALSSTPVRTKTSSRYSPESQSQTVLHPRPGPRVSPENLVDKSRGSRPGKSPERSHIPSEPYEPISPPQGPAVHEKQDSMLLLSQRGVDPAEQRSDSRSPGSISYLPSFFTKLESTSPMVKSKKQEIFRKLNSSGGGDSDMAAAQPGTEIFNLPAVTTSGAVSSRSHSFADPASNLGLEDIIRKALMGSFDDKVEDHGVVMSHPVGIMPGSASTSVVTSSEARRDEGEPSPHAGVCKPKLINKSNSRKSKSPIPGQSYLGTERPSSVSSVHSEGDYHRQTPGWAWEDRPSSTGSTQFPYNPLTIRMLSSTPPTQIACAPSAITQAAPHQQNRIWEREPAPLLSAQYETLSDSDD
UniProt Q03347: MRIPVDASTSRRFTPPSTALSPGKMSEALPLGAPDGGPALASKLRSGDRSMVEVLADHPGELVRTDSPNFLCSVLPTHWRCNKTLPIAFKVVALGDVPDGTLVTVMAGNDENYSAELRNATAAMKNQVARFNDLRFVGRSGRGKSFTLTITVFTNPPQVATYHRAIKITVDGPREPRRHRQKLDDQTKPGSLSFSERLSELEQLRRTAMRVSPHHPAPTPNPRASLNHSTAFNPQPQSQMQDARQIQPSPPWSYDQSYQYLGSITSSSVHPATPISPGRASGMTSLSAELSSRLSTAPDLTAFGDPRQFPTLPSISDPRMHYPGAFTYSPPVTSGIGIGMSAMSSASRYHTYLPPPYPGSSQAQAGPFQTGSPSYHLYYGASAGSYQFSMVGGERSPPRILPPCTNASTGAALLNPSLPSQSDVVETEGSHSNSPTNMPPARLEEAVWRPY
UniProt P22091: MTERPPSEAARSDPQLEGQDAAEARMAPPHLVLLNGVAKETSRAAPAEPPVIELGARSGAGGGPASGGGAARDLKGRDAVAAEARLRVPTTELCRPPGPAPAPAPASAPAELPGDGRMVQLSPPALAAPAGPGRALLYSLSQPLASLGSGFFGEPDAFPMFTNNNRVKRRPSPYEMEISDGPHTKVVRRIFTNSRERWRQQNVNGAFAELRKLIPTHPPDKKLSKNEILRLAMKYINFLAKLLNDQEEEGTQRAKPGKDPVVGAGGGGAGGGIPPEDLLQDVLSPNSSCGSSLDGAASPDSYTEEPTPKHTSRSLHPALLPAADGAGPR

The chains are these.
B1: TBLXR1 (protein, UniProt Q8BHJ5 1-514)
chain: MSISSDEVNFLVYRYLQESGFSHSAFTFGIESHISQSNINGALVPPAALISIIQKGLQYVEAEVSINEDGTLFDGRPIESLSLIDAVMPDVVQTRQQAYRDKLAQQHAAAAAAAAAATNQQGSAKNGENTANGEENGAHTIANNHTDMMEVDGDVEIPSNKAVVLRGHESEVFICAWNPVSDLLASGSGDSTARIWNLSENSTSGPTQLVLRHCIREGGQDVPSNKDVTSLDWNSEGTLLATGSYDGFARIWTKDGNLASTLGQHKGPIFALKWNKKGNFILSAGVDKTTIIWDAHTGEAKQQFPFHSAPALDVDWQSNNTFASCSTDMCIHVCKLGQDRPIKTFQGHTNEVNAIKWDPTGNLLASCSDDMTLKIWSMKQDNCVHDLQAHNKEIYTIKWSPTGPGTNNPNANLMLASASFDSTVRLWDVDRGICIHTLTKHQEPVYSVAFSPDGRYLASGSFDKCVHIWNTQTGALVHSYRGTGGIFEVCWNAAGDKVGASASDGSVCVLDLRK
B2: ZFPM1 (protein, UniProt O35615 1-995)
chain: MSRRKQSNPRQIKRSLRDMEAGEEAKAMDSSPKEQEAPDPEAPAIEEPPSPPREDVSPPAVPAPPESPEDPEDMEGQELEMRPQDEEKEEKEEEAAMASPWSGPEELELALQDGQRCVRARLSLTEGLSWGPFYGSIQTRALSPEREEPGPAVTLMVDESCWLRMLPQVLTEEAANSEIYRKDDALWCRVTKVVPSGGLLYVRLVTEPHGAPRHPVQEPVEPGGLAPVHTDIQLLPQQAGMASILATAVINKDVFPCKDCGIWYRSERNLQAHLLYYCASRQRAGSPVSATEEKPKETYPNERVCPFPQCRKSCPSASSLEIHMRSHSGERPFVCLICLSAFTTKANCERHLKVHTDTLSGVCHNCGFISTTRDILYSHLVTNHMVCQPGSKGEIYSPGAGHPAAKLPPDSLAGFQQHSLMHSPLVPADKAPTPSSGLDSKAEVTNGETRVPPQNGGSSESPAAPRTIKVEAAEEPEATRASGPGEPGPQAPSRTPSPHSPNPVRVKTELSSPTPGSSPGPGELTMAGTLFLPQYVFSPDAGTTTVPTAPQASEILAKMSELVHNRLQQGAGSSGAAGTPTGLFSGTKGATCFECEITFNNINNFYVHKRLYCSGRRAPEDPPTVRRPKAATGPARAPAGAAAEPDPSRSSPGPGPREEEASGTTTPEAEAAGRGSEGSQSPGSSVDDAEDDPSRTLCEACNIRFSRHETYTVHKRYYCASRHDPPPRRPPAPTTAPGPAAPALTAPPVRTRRRRKLYELPAAGAPPPAAGPAPVPVVPSPTAELPSSPRPGSASAGPAPALSPSPVPDGPIDLSKRPRRQSPDAPTALPALADYHECTACRVSFHSLEAYLAHKKYSCPAAPLRTTALCPYCPPNGRVRGDLVEHLRQAHGLQVAKPAASPGAEPRTPAERAPRDSPDGRAPRSPSPAPENTPSDPADQGARTPSKGPPAPAPAPGGGGGHRYCRLCNIRFSSLSTFIAHKKYYCSSHAAEHVK

For this experiment, the target named is GATA1 (mouse (endogenous in Nsd1−/− BM-derived erythroblasts)) (UniProt P17679). Put plainly: affinity purification with mass spectrometry; immunoprecipitation of endogenous GATA1 followed by mass spectrometry in Nsd1−/− BM-derived erythroblasts expressing wild-type Nsd1 or the inactive Nsd1^N1918Q mutant, kept for 24 h in differentiation medium; each group normalized to IgG control (n = 2).
For MBD2 (from UniProt Q9Z2E1 1-414), the binding result was “binds”. As to NCOR1 (from UniProt Q60974 1-2453), the binding entry is on record as “binds”. Turning to RUNX1 (from UniProt Q03347 1-451), the binding entry is given as “binds”. Regarding TAL1 (from UniProt P22091 1-329), the binding entry is “binds”.

As to B1, the binding result is recorded as “binds”. B2: the binding result is on record as “binds”.
